According to patent publication US4450165A, “Dihydropyridine compounds” (Yoshitomi Pharmaceutical Industries, Ltd., priority 1981, dated 1984):

Tested on: coronary blood flow (left coronary artery)
Experiment: Effect on coronary blood flow
Type: in vivo, mongrel dogs
Conditions: anesthetized dogs
Protocol: The perfused flow was measured by means of an electromagnitic flow-meter. The test compound was dissolved in an aqueous solution containing 15% ethanol and 15% polyethylene glycol, and injected into the afferent cannula. […] The duration was measured as the time for which the half maximum response remained.

COC(=O)C1=C(C)NC(C)=C(C(=O)OC)C1c1ccccc1[N+](=O)[O-] [Nifedipine]
Duration (time for which the half maximum response remained): 2.0 min
